Results taken from patent US6670370B1 (priority 2001, dated 2003).
Some results were stated once for a whole list of compounds, not compound by compound.

Assay: Tap density of milled dextromethorphan tannate powders
Format: physicochemical
Conditions: particles having a particle size of about 100 mesh, general description

Row | Substance | tap density (listed as dextromethorphan tannate synthesized via the IPA route) | tap density (listed as commercial available dextromethorphan tannate)
1 | dextromethorphan tannate [D-M Tannate synthesized by IPA route (Example 5)] | ≤ 0.4 g/cc | –
2 | dextromethorphan tannate [Commercially available D-M Tannate] | – | ≤ 0.4 g/cc
